Experimental data taken from article PMC7367684, “Mechanical inhibition of isolated Vo from V/A-ATPase for proton conductance” (eLife, 2020).
These are yes or no findings as the source states them, for the method shown. Binding calls can cover weak binding; strength is not graded here.

Target: c subunit of the Thermus thermophilus V/A-ATPase (c12 rotor ring) (Thermus thermophilus) (UniProt Q5SIT7)
Assay: cryo-EM structure; isolated Vo (His3 tag on the c subunit) in nanodiscs (MSP1E3D1, DMPC by the methods), 20 mM Tris-HCl pH 8.0, 150 mM NaCl; CRYOARM200, K2 Summit; 3.9 Å; both purified

B1: a subunit of the Thermus thermophilus V/A-ATPase (protein, UniProt Q5SIT6 1-652)
chain: MIAPMEKLVLAGPKGRAKELLQSLQQAGVVHLETLRPEALSAYQLSPEERAELRRWEAVSAGAEHTLSLLGLEAEPARPFPEGLEAAEKALSPIQAHAEGLTRQKQELEEELALAQAYLEPLERLAALAHGLDKSPFLRVIPFLLTEKELPLVEEALRKALEDRYLLAHEAYAGGVAALVVVHRKEVDQAKAALSRAGVAELRLPGALGELPLSEAARRLKERAEAAPRELSEVRQHLAKLARESASTLQSLWTRAQDEVARLKALEELASGRFGFALLGYVPVKAKPKVEEALARHKESVVYAFEPVDEHHEADRIPVVLDNPPWAKPFELLVSFLNTPKYGTFDPTPVVPVFFPFWFGMIVGDIGYALLFYLVGRWLSGYVKRNEPLVIDLFALKLKPQVIGKLVHILNWMVFWTVVWGVIYGEFFGTFLEHLGVFGTPEHPGLIPILIHRIDTAKTANLLILLSVAFGVVLVFFGLALRAYLGLKHRHMAHFWEGVGYLGGLVGVLALAASYLGNLQAGWLQGLMYLGFGVFLLAVLMSRIWLMIPEIFTQAGHILSHIRIYAVGAAGGILAGLLTDVGFALAERLGLLGVLLGLLVAGVLHLLILLLTTLGHMLQPIRLLWVEFFTKFGFYEENGRPYRPFKSVREAQ
- binding: binds

B2: d subunit of the Thermus thermophilus V/A-ATPase (natural protein)
chain: MADDFAYLNARVRVRRGTLLKESFFQEALDLSFADFLRLLSETVYGGELAGQGLPDVDRAVLRTQAKLVGDLPRLVTGEAREAVRLLLLRNDLHNLQALLRAKATGRPFEEVLLLPGTLREEVWRQAYEAQDPAGMAQVLAVPGHPLARALRAVLRETQDLARVEALLAKRFFEDVAKAAKGLDQPALRDYLALEVDAENLRTAFKLQGSGLAPDAFFLKGGRFVDRVRFARLMEGDYAVLDELSGTPFSGLSGVRDLKALERGLRCVLLKEAKKGVQDPLGVGLVLAYVKEREWEAVRLRLLARRAYFGLPRAQVEEEVVCP
notes: d subunit (subunit C) of the V/A-ATPase of Thermus thermophilus, strain HB8
- binding: binds
